The values that follow come from patent publication US9050296.

Sequences of proteins named here, by UniProt entry; tags and fusion partners are left off. A change or cut given only in a name is not applied to a line headed by its entry.
UniProt Q8CG08: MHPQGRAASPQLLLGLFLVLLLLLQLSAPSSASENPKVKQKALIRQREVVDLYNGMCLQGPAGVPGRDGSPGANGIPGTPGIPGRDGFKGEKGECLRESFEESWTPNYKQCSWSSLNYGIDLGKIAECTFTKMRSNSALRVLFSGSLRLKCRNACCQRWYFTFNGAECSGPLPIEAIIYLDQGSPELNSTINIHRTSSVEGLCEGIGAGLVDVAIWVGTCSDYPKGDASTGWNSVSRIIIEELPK

Results are given in words; binding and its absence hold for the method and conditions named. Some entries that bind do so weakly or less than the wild type.

In the assay the target is rat Cthrc1 with a C terminal myc/6xHis tag (rat) (UniProt Q8CG08). Kind of assay: non-reducing SDS-PAGE and autoradiography of plasma 30 min after injection (self-association).

Turning to “rat Cthrc1 with a C terminal myc/6xHis tag (from UniProt Q8CG08 33-245)”, the binding result is given as “binds”.
